Values of other authors as cited in patent US8497290B2, “Thiocolchicine derivatives, method of making and methods of use thereof” (priority 2009, dated 2013).

Tested on: rat model
Details: metabolites of thiocolchicoside, compared with thiocolchicoside

COc1c(O)cc2c(c1OC)-c1ccc(SC)c(=O)cc1C(NC(C)=O)CC2 (stereo not shown) [aglycone derivative, 3-demethylthiocolchicine]
muscle relaxant activity: no muscle relaxant activity
